From patent US20030148396A1
Results are given in words; binding and its absence hold for the method and conditions named. For some assays here: Binding seen in cells or lysates may run through a third protein. Some binding calls cover weakened binding; strength is not graded here. For some assays here: Where a sequence is shown, tags or fusion partners need not be part of it. Each block holds one binder with its values, some of them ahead of it.

The chains behind the UniProt entries cited, without tags or fusion partners. Where a name states a change or a piece, a line headed by the entry shows the natural chain unless it says otherwise.
UniProt Q04206: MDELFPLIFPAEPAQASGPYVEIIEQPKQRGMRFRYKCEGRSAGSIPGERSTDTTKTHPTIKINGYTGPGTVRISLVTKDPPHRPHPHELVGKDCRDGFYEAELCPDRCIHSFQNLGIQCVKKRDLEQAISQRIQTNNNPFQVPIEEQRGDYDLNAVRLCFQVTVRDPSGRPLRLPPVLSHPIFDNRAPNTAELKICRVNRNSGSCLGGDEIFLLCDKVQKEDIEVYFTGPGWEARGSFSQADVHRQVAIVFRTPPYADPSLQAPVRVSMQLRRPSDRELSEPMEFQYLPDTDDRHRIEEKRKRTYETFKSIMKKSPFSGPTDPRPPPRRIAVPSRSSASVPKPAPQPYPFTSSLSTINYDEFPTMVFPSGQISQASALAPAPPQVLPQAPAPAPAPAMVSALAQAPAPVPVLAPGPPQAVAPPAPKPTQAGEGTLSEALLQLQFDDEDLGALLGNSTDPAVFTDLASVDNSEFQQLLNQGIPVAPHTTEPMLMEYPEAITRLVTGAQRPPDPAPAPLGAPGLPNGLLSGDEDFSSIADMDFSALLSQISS
UniProt P04386: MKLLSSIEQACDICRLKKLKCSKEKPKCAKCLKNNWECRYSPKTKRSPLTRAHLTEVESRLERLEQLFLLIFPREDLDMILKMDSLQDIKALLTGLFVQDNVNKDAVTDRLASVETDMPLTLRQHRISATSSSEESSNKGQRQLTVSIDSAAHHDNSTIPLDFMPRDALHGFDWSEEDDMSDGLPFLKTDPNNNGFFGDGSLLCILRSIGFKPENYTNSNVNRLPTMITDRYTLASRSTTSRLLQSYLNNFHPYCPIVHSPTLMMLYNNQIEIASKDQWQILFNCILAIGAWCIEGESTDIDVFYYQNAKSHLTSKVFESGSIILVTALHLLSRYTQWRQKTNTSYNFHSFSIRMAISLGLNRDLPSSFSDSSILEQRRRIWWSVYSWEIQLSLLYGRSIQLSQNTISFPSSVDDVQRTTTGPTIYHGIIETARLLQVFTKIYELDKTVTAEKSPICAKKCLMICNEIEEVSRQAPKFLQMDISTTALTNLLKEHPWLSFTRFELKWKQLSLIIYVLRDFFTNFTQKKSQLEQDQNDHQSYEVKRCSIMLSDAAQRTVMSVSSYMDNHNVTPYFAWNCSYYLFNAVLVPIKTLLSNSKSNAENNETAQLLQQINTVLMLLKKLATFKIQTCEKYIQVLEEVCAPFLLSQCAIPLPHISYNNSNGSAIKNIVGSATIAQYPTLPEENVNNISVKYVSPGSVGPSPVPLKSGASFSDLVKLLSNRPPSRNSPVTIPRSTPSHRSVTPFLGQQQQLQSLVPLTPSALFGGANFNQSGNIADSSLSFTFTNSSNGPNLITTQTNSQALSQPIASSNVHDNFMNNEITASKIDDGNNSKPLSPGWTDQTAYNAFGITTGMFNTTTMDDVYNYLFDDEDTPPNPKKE

How the values were obtained:
[1] = biological target: 35S-methionine-labeled p65 (UniProt Q04206); test: in vitro binding with bacterially expressed fusion proteins
[2] = biological target: 35S-methionine-labeled p65 (UniProt Q04206); test: GST pull-down on glutathione-sepharose beads, autoradiography of 35S-labeled p65
p65 in transfected cells = p65 in transfected cells (UniProt Q04206); test: co-immunoprecipitation from transfected 293T cells, Western blot with anti-p65
[3] = biological target: T1, GAL4 DNA-binding domain fused to human p65 (amino acids 176-405), from pAS2-1-p65 (176-405) (yeast; human) (UniProt P04386+Q04206); test: yeast two-hybrid screen with p65 (176-405) bait, β-galactosidase and histidine selection
[4] = biological target: T1, GAL4 DNA-binding domain fused to human p65 (amino acids 176-405), from pAS2-1-p65 (176-405) (yeast; human); test: restated result of the earlier binding experiments
[5] = biological target: T1, GAL4 DNA-binding domain fused to human p65 (amino acids 176-405), from pAS2-1-p65 (176-405) (yeast; human); test: yeast two-hybrid screen with p65 (176-405) bait

B1: GST-RAI fusion protein (protein, not shown: a dimerising Fc or GST)
chain: MWMKDPVARPLSPTRLQPALPPEAQSVPELEEVARVLAEIPRPLKRRGSMEQAPAVALPPTHKKQYQQIISRLFHRHGGPGPGGRSQSCPPSLRDLRPGQGPLLLPHQLPFHRPAPSQSSPPEQPQSMEMRSVLRKAGSPRKARRARLNPLVLLLDAALTGELEVVQQAVKEMNDPSQPNEEGITALHNAICGANYSIVDFLITAGANVNSPDSHGWTPLHCAASCNDTVICMALVQHGAAIFATTLSDGATAFEKCDPYREGYADCATYLADVEQSMGLMNSGAVYALWDYSAEFGDELSFREGESVTVLRRDGPEETDWWWAALHGQEGYVPRNYFGLFPRVKPQRSKV
binding [1]: binds
binding [2]: binds

B2: FLAG-RAI (full-length RAI with FLAG epitope tag, from pFLAG-CMV-RAI) (protein, not shown: small tags and cut ends)
chain: MWMKDPVARPLSPTRLQPALPPEAQSVPELEEVARVLAEIPRPLKRRGSMEQAPAVALPPTHKKQYQQIISRLFHRHGGPGPGGRSQSCPPSLRDLRPGQGPLLLPHQLPFHRPAPSQSSPPEQPQSMEMRSVLRKAGSPRKARRARLNPLVLLLDAALTGELEVVQQAVKEMNDPSQPNEEGITALHNAICGANYSIVDFLITAGANVNSPDSHGWTPLHCAASCNDTVICMALVQHGAAIFATTLSDGATAFEKCDPYREGYADCATYLADVEQSMGLMNSGAVYALWDYSAEFGDELSFREGESVTVLRRDGPEETDWWWAALHGQEGYVPRNYFGLFPRVKPQRSKV
binding (p65 in transfected cells): binds

B6: 53BP2 (two-hybrid library clones in pACT2) (protein, human, UniProt Q13625 600-1128, looked up, not shown: large carriers)
chain: KPQTVAASSIYSMYTQQQAPGKNFQQAVQSALTKTHTRGPHFSSVYGKPVIAAAQNQQQHPENIYSNSQGKPGSPEPETEPVSSVQENHENERIPRPLSPTKLLPFLSNPYRNQSDADLEALRKKLSNAPRPLKKRSSITEPEGPNGPNIQKLLYQRTTIAAMETISVPSYPSKSASVTASSESPVEIQNPYLHVEPEKEVVSLVPESLSPEDVGNASTENSDMPAPSPGLDYEPEGVPDNSPNLQNNPEEPNPEAPHVLDVYLEEYPPYPPPPYPSGEPEGPGEDSVSMRPPEITGQVSLPPGKRTNLRKTGSERIAHGMRVKFNPLALLLDSSLEGEFDLVQRIIYEVDDPSLPNDEGITALHNAVCAGHTEIVKFLVQFGVNVNAADSDGWTPLHCAASCNNVQVCKFLVESGAAVFAMTYSDMQTAADKCEEMEEGYTQCSQFLYGVQEKMGIMNKGVIYALWDYEPQNDDELPMKEGDCMTIIHREDEDEIEWWWARLNDKEGYVPRNLLGLYPRIKPRQRSLA
binding [5]: binds

Second part, the binder after the results:

binding [3]: binds
binding [4]: binds
B3: RAI partial-length clones in GAL4 transcriptional activation domain vector pACT2 (protein, not shown: large carriers)
chain: MWMKDPVARPLSPTRLQPALPPEAQSVPELEEVARVLAEIPRPLKRRGSMEQAPAVALPPTHKKQYQQIISRLFHRHGGPGPGGRSQSCPPSLRDLRPGQGPLLLPHQLPFHRPAPSQSSPPEQPQSMEMRSVLRKAGSPRKARRARLNPLVLLLDAALTGELEVVQQAVKEMNDPSQPNEEGITALHNAICGANYSIVDFLITAGANVNSPDSHGWTPLHCAASCNDTVICMALVQHGAAIFATTLSDGATAFEKCDPYREGYADCATYLADVEQSMGLMNSGAVYALWDYSAEFGDELSFREGESVTVLRRDGPEETDWWWAALHGQEGYVPRNYFGLFPRVKPQRSKV

binding [5]: binds
B4: IκB-β/Trip9 (two-hybrid library clones in pACT2) (protein, human, UniProt Q15653 1-356, looked up, not shown: large carriers)
chain: MAGVACLGKAADADEWCDSGLGSLGPDAAAPGGPGLGAELGPGLSWAPLVFGYVTEDGDTALHLAVIHQHEPFLDFLLGFSAGTEYMDLQNDLGQTALHLAAILGETSTVEKLYAAGAGLCVAERRGHTALHLACRVGAHACARALLQPRPRRPREAPDTYLAQGPDRTPDTNHTPVALYPDSDLEKEEEESEEDWKLQLEAENYEGHTPLHVAVIHKDVEMVRLLRDAGADLDKPEPTCGRSPLHLAVEAQAADVLELLLRAGANPAARMYGGRTPLGSAMLRPNPILARLLRAHGAPEPEGEDEKSGPCSSSSDSDSGDEGDEYDDIVVHSSRSQTRLPPTPASKPLPDDPRPV

binding [5]: binds
B5: c-Rel (two-hybrid library clone in pACT2) (protein, human, UniProt Q04864 1-619, looked up, not shown: large carriers)
chain: MASGAYNPYIEIIEQPRQRGMRFRYKCEGRSAGSIPGEHSTDNNRTYPSIQIMNYYGKGKVRITLVTKNDPYKPHPHDLVGKDCRDGYYEAEFGQERRPLFFQNLGIRCVKKKEVKEAIITRIKAGINPFNVPEKQLNDIEDCDLNVVRLCFQVFLPDEHGNLTTALPPVVSNPIYDNRAPNTAELRICRVNKNCGSVRGGDEIFLLCDKVQKDDIEVRFVLNDWEAKGIFSQADVHRQVAIVFKTPPYCKAITEPVTVKMQLRRPSDQEVSESMDFRYLPDEKDTYGNKAKKQKTTLLFQKLCQDHVETGFRHVDQDGLELLTSGDPPTLASQSAGITVNFPERPRPGLLGSIGEGRYFKKEPNLFSHDAVVREMPTGVSSQAESYYPSPGPISSGLSHHASMAPLPSSSWSSVAHPTPRSGNTNPLSSFSTRTLPSNSQGIPPFLRIPVGNDLNASNACIYNNADDIVGMEASSMPSADLYGISDPNMLSNCSVNMMTTSSDSMGETDNPRLLSMNLENPSCNSVLDPRDLRQLHQMSSSSMSAGANSNTTVFVSQSDAFEGSDFSCADNSMINESGPSNSTNPNSHGFVQDSQYSGIGSMQNEQLSDSFPYEFFQV
